These are yes or no findings as the source states them, for the method shown. For some of these results: In cells and extracts the contact can be indirect. Some entries that bind do so weakly or less than the wild type.
Assays:
hLgs/BCL9 (human) [1] = molecular target: T1, hLgs/BCL9 (human) (UniProt O00512); assay: summary of the yeast two-hybrid and pull-down results
T1 sequence (looked up): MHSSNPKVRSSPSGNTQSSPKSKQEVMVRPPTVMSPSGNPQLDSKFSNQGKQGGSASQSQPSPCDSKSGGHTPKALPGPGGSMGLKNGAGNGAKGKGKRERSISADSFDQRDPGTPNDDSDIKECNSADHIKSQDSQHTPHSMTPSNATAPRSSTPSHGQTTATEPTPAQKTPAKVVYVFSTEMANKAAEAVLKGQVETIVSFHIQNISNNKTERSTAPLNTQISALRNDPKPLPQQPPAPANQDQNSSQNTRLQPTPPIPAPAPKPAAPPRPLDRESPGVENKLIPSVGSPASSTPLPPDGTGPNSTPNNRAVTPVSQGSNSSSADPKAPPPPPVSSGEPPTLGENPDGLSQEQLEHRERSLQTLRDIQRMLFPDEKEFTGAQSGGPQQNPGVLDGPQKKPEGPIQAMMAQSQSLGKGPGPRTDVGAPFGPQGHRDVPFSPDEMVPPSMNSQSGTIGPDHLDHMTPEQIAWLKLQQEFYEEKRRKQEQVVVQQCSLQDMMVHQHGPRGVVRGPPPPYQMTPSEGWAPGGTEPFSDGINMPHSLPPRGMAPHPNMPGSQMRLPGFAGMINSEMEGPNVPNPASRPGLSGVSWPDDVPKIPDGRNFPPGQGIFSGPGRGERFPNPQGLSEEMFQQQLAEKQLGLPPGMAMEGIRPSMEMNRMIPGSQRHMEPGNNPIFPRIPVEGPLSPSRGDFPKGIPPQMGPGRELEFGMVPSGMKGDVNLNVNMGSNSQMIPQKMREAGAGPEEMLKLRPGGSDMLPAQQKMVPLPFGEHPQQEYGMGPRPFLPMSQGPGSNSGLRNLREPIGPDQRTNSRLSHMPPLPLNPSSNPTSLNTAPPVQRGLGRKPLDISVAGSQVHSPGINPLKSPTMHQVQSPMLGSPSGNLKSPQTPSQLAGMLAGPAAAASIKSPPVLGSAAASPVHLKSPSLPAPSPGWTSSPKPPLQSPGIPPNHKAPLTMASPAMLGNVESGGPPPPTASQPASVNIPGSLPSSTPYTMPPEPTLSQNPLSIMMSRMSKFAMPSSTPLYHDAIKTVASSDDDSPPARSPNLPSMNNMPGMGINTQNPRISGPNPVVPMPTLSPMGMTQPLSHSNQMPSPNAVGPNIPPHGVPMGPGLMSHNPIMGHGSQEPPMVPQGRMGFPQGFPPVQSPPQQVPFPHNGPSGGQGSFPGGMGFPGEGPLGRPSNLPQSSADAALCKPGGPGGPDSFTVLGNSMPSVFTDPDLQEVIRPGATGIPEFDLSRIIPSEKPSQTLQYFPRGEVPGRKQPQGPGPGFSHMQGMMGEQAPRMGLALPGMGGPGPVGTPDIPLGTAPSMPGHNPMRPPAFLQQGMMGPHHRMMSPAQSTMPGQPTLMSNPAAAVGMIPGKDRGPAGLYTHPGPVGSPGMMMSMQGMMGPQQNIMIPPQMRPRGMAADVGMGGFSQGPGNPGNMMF

Amino acid sequences for entries named in this document (tags omitted). A change or cut given only in a name is not applied to a line headed by its entry.
UniProt P0A7C2: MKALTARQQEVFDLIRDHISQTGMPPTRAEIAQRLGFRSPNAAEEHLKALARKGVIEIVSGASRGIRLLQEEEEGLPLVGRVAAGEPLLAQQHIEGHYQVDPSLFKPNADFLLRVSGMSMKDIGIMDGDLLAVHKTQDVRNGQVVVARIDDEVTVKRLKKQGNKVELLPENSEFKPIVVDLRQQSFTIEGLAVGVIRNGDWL

hLgs/BCL9 (human) [2] = molecular target: T1, hLgs/BCL9 (human); assay: interaction mapping (FIG. 4d)
hLgs/BCL9 (human) [3] = molecular target: T1, hLgs/BCL9 (human); assay: yeast two-hybrid and pull-down (FIG. 4)
[4] = molecular target: LgsFL (full-length Drosophila Legless protein of 1464 amino acids) fused to the LexA DNA-binding domain (Drosophila) (UniProt P0A7C2+Q961D9); assay: yeast two-hybrid screen, entire Lgs protein as bait
[5] = molecular target: T2, Drosophila Legless (Lgs) (Drosophila) (UniProt Q961D9); assay: summary of the yeast two-hybrid and pull-down results
T2 sequence (looked up): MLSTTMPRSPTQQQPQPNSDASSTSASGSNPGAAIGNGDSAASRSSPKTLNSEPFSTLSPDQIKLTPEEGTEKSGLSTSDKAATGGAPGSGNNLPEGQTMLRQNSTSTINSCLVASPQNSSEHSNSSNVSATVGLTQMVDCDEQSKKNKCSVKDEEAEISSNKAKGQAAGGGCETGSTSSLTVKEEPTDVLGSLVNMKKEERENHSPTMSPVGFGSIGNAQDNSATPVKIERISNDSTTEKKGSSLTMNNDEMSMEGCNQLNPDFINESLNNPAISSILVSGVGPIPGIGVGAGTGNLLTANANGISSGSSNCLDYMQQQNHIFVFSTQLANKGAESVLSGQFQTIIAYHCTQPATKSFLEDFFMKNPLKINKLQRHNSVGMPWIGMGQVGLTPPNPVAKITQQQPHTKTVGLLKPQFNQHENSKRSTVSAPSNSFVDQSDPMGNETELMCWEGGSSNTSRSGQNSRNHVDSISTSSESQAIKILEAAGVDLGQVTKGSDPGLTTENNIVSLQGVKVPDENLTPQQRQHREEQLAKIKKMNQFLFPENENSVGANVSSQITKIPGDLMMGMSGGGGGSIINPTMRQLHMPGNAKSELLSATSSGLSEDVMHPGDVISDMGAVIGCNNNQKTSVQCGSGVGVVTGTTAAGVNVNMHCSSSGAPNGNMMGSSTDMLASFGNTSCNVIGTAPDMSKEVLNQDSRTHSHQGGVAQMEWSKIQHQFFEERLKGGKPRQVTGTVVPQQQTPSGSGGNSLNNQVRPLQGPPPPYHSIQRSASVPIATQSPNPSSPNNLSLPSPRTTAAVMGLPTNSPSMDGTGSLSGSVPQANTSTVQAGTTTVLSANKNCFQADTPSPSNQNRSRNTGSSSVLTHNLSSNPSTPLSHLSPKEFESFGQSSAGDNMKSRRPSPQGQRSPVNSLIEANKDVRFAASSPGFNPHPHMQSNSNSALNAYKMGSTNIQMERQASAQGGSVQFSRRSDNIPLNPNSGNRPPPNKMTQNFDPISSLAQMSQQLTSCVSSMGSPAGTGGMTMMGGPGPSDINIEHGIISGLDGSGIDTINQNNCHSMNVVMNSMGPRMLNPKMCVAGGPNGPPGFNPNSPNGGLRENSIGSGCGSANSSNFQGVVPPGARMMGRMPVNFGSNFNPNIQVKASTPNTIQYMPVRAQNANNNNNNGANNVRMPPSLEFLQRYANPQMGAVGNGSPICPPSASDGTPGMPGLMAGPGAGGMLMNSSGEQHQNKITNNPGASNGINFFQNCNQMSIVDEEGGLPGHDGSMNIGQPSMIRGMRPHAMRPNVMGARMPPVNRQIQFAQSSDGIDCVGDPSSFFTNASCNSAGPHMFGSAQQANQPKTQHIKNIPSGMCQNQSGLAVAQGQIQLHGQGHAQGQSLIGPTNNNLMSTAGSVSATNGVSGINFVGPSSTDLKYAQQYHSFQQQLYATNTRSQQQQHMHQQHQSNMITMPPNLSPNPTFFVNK

[6] = molecular target: LgsN (first 732 amino acids of Drosophila Legless) fused to the LexA DNA-binding domain (Drosophila) (UniProt P0A7C2+Q961D9); assay: yeast two-hybrid screen, N-terminal half of Lgs as bait
[7] = molecular target: T2, Drosophila Legless (Lgs) (Drosophila); assay: yeast two-hybrid and pull-down (FIG. 4)

Measured: binding

B1: human Doll protein hDOLL-1 (protein)
chain: MPAENSPAPAYKVSSHGGDSGLDGLGGPGVQLGSPDKKKRKANTQGPSFPPLSEYAPPPNPNSDHLVAANPFDDNYNTISYKPLPSSNPYLGPGYPGFGGYSTFRMPPHVPPRMSSPYCGPYSLRNQPHPFPQNPLGMGFNRPHAFNFGPHDNSSFGNPSYNNALSQNVNMPNQHFRQNPAENFSQIPPQNASQVSNPDLASNFVPGNNSNFTSPLESNHSFIPPPNTFGQAKAPPPKQDFTQGATKNTNQNSSAHPPHLNMDDTVNQSNIELKNVNRNNAVNQENSRSSSTEATNNNPANGTQNKPRQPRGAADACTTEKSNKSSLHPNRHGHSSSDPVYPCGICTNEVNDDQDAILCEASCQKWFHRICTGMTETAYGLLTAEASAVWGCDTCMADKDVQLMRTRETFGPSAVGSDA
binds: hLgs/BCL9 (human) [1] | hLgs/BCL9 (human) [2] | hLgs/BCL9 (human) [3]

B2: Drosophila melanogaster Daughter of Legless (Doll) protein (protein)
chain: MTHNLGMAPYRLPGPAGGLCPPDFKPPPPTDIISAPSNPKKRRKTSSAANSAAAVAAAAAAAAAANSMQQQQAPPTPQDLLPPPPMGGFGDTIIASNPFDDSPQVSAMSSSAAAAMAAMNQMGGGPGGGHFGGGGPGGHPHWEDRMGMGGGPPPPPHMHPHMHPHHPGGPMGHPHGPHPHMGGPPPMRGMSPMHPHQMGPGPGVGLPPHMNHGRPGGPGGPGGPVPMGSPMGGIAGMGGMSPMGGMGGPSISPHHMGMGGLSPMGGGPNGPNPRAMQGSPMGGPGQNSPMNSLPMGSPMGNPIGSPLGPPSGPGPGNPGNTGGPQQQQQQPPQPPMNNGQMGPPPLHSPLGNGPTGHGSHMPGGPIPGPGPGPGGLVGPGGISPAHGNNPGGSGNNMLGGNPGGGNSNNNGSNTSNASNNNQNPHLSPAAGRLGVPTSMQSNGPSVSSVASSSVPSPATPTLTPTSTATSMSTSVPTSSPAPPAMSPHHSLNSAGPSPGMPNSGPSPLQSPAGPNGPNNNNSNNNNGPMMGQMIPNAVPMQHQQHMGGGPPGHGPGPMPGMGMNQMLPPQQPSHLGPPHPNMMNHPHHPHHHPGGPPPHMMGGPGMHGGPAGMPPHMGGGPNPHMMGGPHGNAGPHMGHGHMGGVPGPGPGPGGMNGPPHPHMSPHHGHPHHHHNPMGGPGPNMFGGGGGGPMGPGGPMGNMGPMGGGPMGGPMGVGPKPMTMGGGKMYPPGQPMVFNPQNPNAPPIYPCGMCHKEVNDNDEAVFCESGCNFFFHRTCVGLTEAAFQMLNKEVFAEWCCDKCVSSKHIPMVKFKC
binds: [4] | [5] | [6] | [7]

From US20040209264A1
